This assay has as its system BALB/c mice, Madison 109 lung carcinoma i.m., survival. The assay is described as follows: NCI In Vivo Anticancer Drug Screen. Data for tumor model Madison 109 Lung Carcinoma (intramuscular) in BALB/CM mice. The conditions noted are these: T/C endpoint: median survival time, higher T/C = longer survival. On the procedure:
The antitumor activity of compounds was measured in mice bearing transplantable tumors. Survival or tumor size were measured and the results are expressed as the measurement made in the treated group (T) divided by the measurement made in the vehicle treated control group (C). The tumor model used in this assay is Madison 109 Lung Carcinoma (intramuscular) in BALB/CM mice

Where [1] appears, read: dose: 1.0 mg/kg/injection, schedule: Q01DX009 (ip), vehicle: saline with Tween-80.
Setting [2] is: dose: 4.0 mg/kg/injection, schedule: Q01DX009 (ip), vehicle: saline with Tween-80.
[3] abbreviates: dose: 8.0 mg/kg/injection, schedule: Q01DX009 (ip), vehicle: saline with Tween-80.
[4] abbreviates: dose: 16.0 mg/kg/injection, schedule: Q01DX009 (ip), vehicle: saline with Tween-80.
[5] abbreviates: dose: 128.0 mg/kg/injection, schedule: Q01DX009 (ip), vehicle: saline with Tween-80.
[6] abbreviates: dose: 10.0 mg/kg/injection, schedule: Q01DX009 (ip), vehicle: saline with Tween-80.
Where [7] appears, read: dose: 1.0 mg/kg/injection, schedule: Q01DX009 (ip), vehicle: saline.
The mark [8] stands for this setting: dose: 2.0 mg/kg/injection, schedule: Q01DX009 (ip), vehicle: saline.
The mark [9] stands for this setting: dose: 25.0 mg/kg/injection, schedule: Q01DX009 (ip), vehicle: saline with Tween-80.
Setting [10] is: dose: 100.0 mg/kg/injection, schedule: Q01DX009 (ip), vehicle: saline with Tween-80.
[11] abbreviates: dose: 400.0 mg/kg/injection, schedule: Q01DX009 (ip), vehicle: saline with Tween-80.
The mark [12] stands for this setting: dose: 200.0 mg/kg/injection, schedule: Q01DX009 (ip), vehicle: saline with Tween-80.

Here are results for 18 compounds from PubChem BioAssay AID302 (DTP/NCI, 2004).

The list is a part of this screen's results and no random one: it is rich in T/C values a quarter to a half above the control, in often repeated tests (any T/C) and in doses without a T/C. Further doses and runs are listed elsewhere. T/C is the treated group as % of the vehicle group. Some doses have a count of surviving animals in place of a T/C: the source holds a T/C of zero for them, seemingly a mark for toxic or unscored doses. Some survivor counts are full or nearly so, which does not show that the dose was tolerated: the source hardly ever lists a survival T/C far under the control, and the zero likely stands for such cases as well. Counts of survivors are from the toxicity check (mostly the fifth day) where no day follows; animals may have died later. Schedule codes are those of the source, read here as Q, the interval in days (D) or hours (H), X, the number of doses. Some entries hold several experiments; the values are given in rising order. For survival time, the PubChem record calls one and a half times the control and up active, and a quarter to a half above the control has no call in these data; cut-offs in other NCI protocols can differ. Brackets with × give the number of equal values in this list. Some T/C values are followed by the survivors on the day toxicity was checked, most often the fifth; where none is given, no animal had died by that day.

`CC(C)NCC(O)COc1cccc2ccccc12` (stereo unspecified): the T/C is 130 % of control (dose: 0.5 mg/kg/injection, schedule: Q01DX009 (ip), vehicle: saline with Tween-80); 126 % of control under setting [1]; 126 % of control (2×) (dose: 2.0 mg/kg/injection, schedule: Q01DX009 (ip), vehicle: saline with Tween-80); 136 % of control under setting [2]; 134 and 137 % of control under setting [3]; 145 % of control under setting [4]. Moreover, the survivor count is listed as 8 of 8 under setting [4] and 1 of 8 under setting [5].
Regarding `O=[N+]([O-])c1ccc(Cl)c([N+](=O)[O-])c1`, the survivor count (dose: 200.0 mg/kg/injection, schedule: Q02DX009 (ip), vehicle: water) is recorded as 8 of 8.
Consider `O=[N+]([O-])c1cccc([N+](=O)[O-])c1Cl`, for which, under setting [6], the T/C was 133 % of control and the survivor count was 8 of 8. Moreover, under “dose: 80.0 mg/kg/injection, schedule: Q01DX009 (ip), vehicle: saline with Tween-80”, the T/C is 137 % of control.
`c1ccc([C@H]2CN3CCSC3=N2)cc1`: the survivor count was 8 of 8 (dose: 40.0 mg/kg/injection, schedule: Q01DX009 (ip), vehicle: saline) and 0 of 8 (dose: 80.0 mg/kg/injection, schedule: Q01DX009 (ip), vehicle: saline).
Consider `COc1cccc2c1C(=O)c1c(O)c3c(c(O)c1C2=O)C[C@@](O)(C(C)=O)C[C@@H]3OC1CC(N)C(O)C(C)O1` (stereo partly specified), for which the survivor count is, setting by setting: (dose: 0.5 mg/kg/injection, schedule: Q01DX009 (ip), vehicle: saline) 8 of 8; under setting [7], 7 of 8; under setting [8], 4 of 8; (dose: 2.0 mg/kg/injection, schedule: Q01DX009 (ip), vehicle: water) 6 of 8; (dose: 4.0 mg/kg/injection, schedule: Q01DX009 (ip), vehicle: saline) 0 of 8; (dose: 4.0 mg/kg/injection, schedule: Q01DX009 (ip), vehicle: water) 7 of 8. For the same compound, the survivor count reads like this: (dose: 8.0 mg/kg/injection, schedule: Q01DX009 (ip), vehicle: saline) 0 of 8; (dose: 8.0 mg/kg/injection, schedule: Q01DX009 (ip), vehicle: water) 1 of 8.
Regarding `CCN(CC)CCCC(C)Nc1c2ccc(Cl)cc2nc2ccc(OC)cc12` (stereo unspecified), the survivor count reads like this: under setting [5], 8 of 8; (dose: 256.0 mg/kg/injection, schedule: Q01DX009 (ip), vehicle: saline with Tween-80) 0 of 8.
`O=C1C=CC(=O)O1` (tested in a mixture with another compound): where the note is “dose: 200.0 mg/kg/injection, schedule: Q01DX009 (ip), vehicle: saline”, the T/C was 125 % of control [2 of 3 alive].
With `Cc1cc(N(CC(C)Br)CC(C)Br)ccc1N=Nc1ccccc1C(=O)O` (stereo unspecified), the survivor count (dose: 6.25 mg/kg/injection, schedule: Q01DX009 (ip), vehicle: saline with Tween-80) was 8 of 8; the survivor count (dose: 12.5 mg/kg/injection, schedule: Q01DX009 (ip), vehicle: saline with Tween-80) is on record as 8 of 8; the survivor count under setting [9] is on record as 8 of 8.
Consider `Nc1ccc(S(=O)(=O)c2ccc(N)cc2)cc1`, for which the survivor count by setting is: under setting [10], 8 of 8; under setting [11], 3 of 8.
`COc1ccc(CC2C(=O)NC(C)C(=O)N(C)C3C(=O)N(C)C(Cc4ccc(O)c(c4)Oc4ccc(cc4)C3O)C(=O)NC(C)C(=O)NC(C)C(=O)N2C)cc1` (stereo unspecified): the survivor count under setting [7] is reported as 8 of 8.
For the compound `CC1=C(/C=C/C(C)=C/C=C/C(C)=C/C(=O)O)C(C)(C)CCC1`, the survivor count reads like this: under setting [8], 8 of 8; (dose: 16.0 mg/kg/injection, schedule: Q01DX009 (ip), vehicle: saline) 8 of 8 on day 2; (dose: 64.0 mg/kg/injection, schedule: Q01DX009 (ip), vehicle: saline) 8 of 8.
Regarding `NNC(=O)c1ccncc1`, for the setting “dose: 32.0 mg/kg/injection, schedule: Q01DX009 (ip), vehicle: saline”, the survivor count is 8 of 8.
Consider `Nc1ncnc2c1ncn2C1OC(COP(=O)(O)O)C(O)C1O` (stereo unspecified), for which the survivor count was 8 of 8 (dose: 400.0 mg/kg/injection, schedule: Q01DX009 (ip), vehicle: saline); 8 of 8 (dose: 800.0 mg/kg/injection, schedule: Q01DX009 (ip), vehicle: saline); 7 of 8 and 8 of 8 (dose: 1600.0 mg/kg/injection, schedule: Q01DX009 (ip), vehicle: saline).
Take `CC(C)CC(NC(=O)C(O)C(N)Cc1ccccc1)C(=O)O` (stereo unspecified): where the note is “dose: 100.0 micrograms/kg/injection, schedule: Q01DX005 (ip), vehicle: saline”, the T/C was 126 % of control.
For the compound `CCOC(=O)CC(SP(=S)(OC)OC)C(=O)OCC` (stereo unspecified), under setting [11], the survivor count is on record as 0 of 8.
Consider `O=C1C2(Cl)C3(Cl)C4(Cl)C(Cl)(Cl)C5(Cl)[C@]3(Cl)C1(Cl)[C@]5(Cl)C24Cl` (stereo partly specified), for which the survivor count reads like this: under setting [9], 8 of 8; (dose: 50.0 mg/kg/injection, schedule: Q01DX009 (ip), vehicle: saline with Tween-80) 0 of 8; under setting [10], 0 of 8; under setting [12], 0 of 8; under setting [11], 0 of 8.
With `CN(C)c1nc(N(C)C)nc(N(C)C)n1`, the survivor count is given as 7 of 8 under setting [12] and 6 of 8 under setting [11].
In the case of `COc1cccc2c1C(=O)c1c(O)c3c(c(O)c1C2=O)C[C@@](O)(/C(C)=N/NC(=O)c1ccccc1)C[C@@H]3OC1CC(N)C(O)C(C)O1` (stereo partly specified), under setting [1], the T/C was 128 % of control. For the same compound, the survivor count was 7 of 8 and 8 of 8 under setting [2]; 8 of 8 under setting [3]; 8 of 8 under setting [4].
